Measurements reported in PubChem BioAssay AID1159508 (Drosophila RNAi Screening Center, 2015)
Purpose: 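How silencing genes for RNA-binding proteins changes cellular ATP without other treatment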. Cell system: Drosophila S2R+ cells. Knock-down reagent: long dsRNA against Drosophila genes. Time to read-out: 5 days. Detection: 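Luminescent ATP signal as a proxy for cell fitness after 5 days of RNAi, given as a z-score in each replicate and averaged over replicates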. Reading the numbers: mean ATP z-score: higher = more total ATP luminescence. Active means: In these data the active calls have mean ATP z-score at about -2 or lower, or at about 2 or higher. Meaning of the calls: active = strong ATP change (up or down); inactive = no strong ATP change.
The whole screen tested 812 reagents; this is a part drawn at random. Of all reagents, 18 (2.2%) are marked active. 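Calls include both increased and decreased ATP; roughly one in four reagents has no third replicate value.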 A plus sign joins genes that one reagent is predicted to hit. Not all columns of the deposit are shown. Not given: the amount of reagent.

mean ATP z-score, by gene and reagent
CG14443: DRSC17936 1.51 inactive; DRSC42653 -0.0484 inactive
snRNP-U1-C: DRSC15804 0.0916 inactive; DRSC30973 0.0904 inactive
AGO3: DRSC21386 -0.0049 inactive; DRSC42716 0.207 inactive
CG7878: DRSC16330 -0.239 inactive; DRSC23990 -0.541 inactive
Dbp45A: DRSC07395 0.256 inactive; DRSC42640 0.783 inactive
Imp: DRSC20255 0.111 inactive; DRSC35798 -0.267 inactive
APC4: DRSC29994 0.366 inactive; DRSC35244 2.09 active
B52: DRSC25482 -0.602 inactive; DRSC40397 0.157 inactive
lark: DRSC25108 -0.964 inactive; DRSC32144 -0.217 inactive
r2d2: DRSC03014 0.951 inactive; DRSC29562 0.99 inactive
CG42372 + CG30100: DRSC05602 -0.561 inactive; DRSC30025 0.167 inactive
Neos: DRSC11235 0.0524 inactive; DRSC35885 -0.511 inactive
CG34354: DRSC15645 1.04 inactive; DRSC23054 -0.0781 inactive
eEF1alpha1: DRSC25133 -1.45 inactive; DRSC32105 -0.256 inactive
SF1: DRSC16844 0.511 inactive; DRSC36012 -0.0741 inactive
Top2: DRSC03459 -0.424 inactive; DRSC40691 0.738 inactive

Quoted from the listing for reference:
mean ATP z-score, by gene and reagent
Imp: DRSC35798 -0.267 inactive
APC4: DRSC29994 0.366 inactive; DRSC35244 2.09 active

More reagents follow.
mean ATP z-score, by gene and reagent
spen: DRSC34301 -0.508 inactive; DRSC34302 0.328 inactive
CG6712: DRSC02981 0.684 inactive; DRSC21690 0.837 inactive
papi: DRSC00693 0.456 inactive; DRSC42659 0.24 inactive
Dys: DRSC16220 0.755 inactive; DRSC40685 0.28 inactive
CG2100: DRSC12303 -0.399 inactive; DRSC42692 0.19 inactive
Spx: DRSC23542 -1.99 inactive; DRSC31760 -1.01 inactive
Mtr3: DRSC26956 -0.257 inactive; DRSC35875 -0.11 inactive
Rrp4: DRSC04434 -0.149 inactive; DRSC39222 0.521 inactive
Saf-B: DRSC16167 -1.58 inactive; DRSC28393 -0.959 inactive
Mettl3: DRSC15921 0.871 inactive; DRSC27423 -0.205 inactive
pelo: DRSC03588 1.31 inactive; DRSC42643 -0.0464 inactive
CG17768 + LSm-4: DRSC02845 -0.247 inactive; DRSC42662 -0.997 inactive; DRSC42714 -0.248 inactive
su(w[a]): DRSC18840 0.46 inactive; DRSC29287 -0.969 inactive
Gga: DRSC18260 0.592 inactive; DRSC27761 -0.236 inactive
